1 molecule from PMC4994017 can be followed below.

Results are given in words; binding and its absence hold for the method and conditions named. Binding seen in cells or lysates may run through a third protein. Some binding calls cover weakened binding; strength is not graded here.

The target of this assay is heterogeneous nuclear ribonucleoprotein K (hnRNPK) (human (endogenous in HCT116p53KO)) (UniProt P61978). The assay can be described thus: co-IP; anti-hnRNPK (ab39975, Abcam) immunoprecipitation from HCT116p53KO lysates with the Magna RIP kit (RNA immunoprecipitation); isotype-matched antibodies as control; eIF4G2 detected by western blot. In general terms: Immunoblotting shows a protein as a band on a membrane.

B1: eIF4G2 (protein, UniProt P78344 1-907)
chain: MESAIAEGGASRFSASSGGGGSRGAPQHYPKTAGNSEFLGKTPGQNAQKWIPARSTRRDDNSAANNSANEKERHDAIFRKVRGILNKLTPEKFDKLCLELLNVGVESKLILKGVILLIVDKALEEPKYSSLYAQLCLRLAEDAPNFDGPAAEGQPGQKQSTTFRRLLISKLQDEFENRTRNVDVYDKRENPLLPEEEEQRAIAKIKMLGNIKFIGELGKLDLIHESILHKCIKTLLEKKKRVQLKDMGEDLECLCQIMRTVGPRLDHERAKSLMDQYFARMCSLMLSKELPARIRFLLQDTVELREHHWVPRKAFLDNGPKTINQIRQDAVKDLGVFIPAPMAQGMRSDFFLEGPFMPPRMKMDRDPLGGLADMFGQMPGSGIGTGPGVIQDRFSPTMGRHRSNQLFNGHGGHIMPPTQSQFGEMGGKFMKSQGLSQLYHNQSQGLLSQLQGQSKDMPPRFSKKGQLNADEISLRPAQSFLMNKNQVPKLQPQITMIPPSAQPPRTQTPPLGQTPQLGLKTNPPLIQEKPAKTSKKPPPSKEELLKLTETVVTEYLNSGNANEAVNGVREMRAPKHFLPEMLSKVIILSLDRSDEDKEKASSLISLLKQEGIATSDNFMQAFLNVLDQCPKLEVDIPLVKSYLAQFAARAIISELVSISELAQPLESGTHFPLFLLCLQQLAKLQDREWLTELFQQSKVNMQKMLPEIDQNKDRMLEILEGKGLSFLFPLLKLEKELLKQIKLDPSPQTIYKWIKDNISPKLHVDKGFVNILMTSFLQYISSEVNPPSDETDSSSAPSKEQLEQEKQLLLSFKPVMQKFLHDHVDLQVSALYALQVHCYNSNFPKGMLLRFFVHFYDMEIIEEEAFLAWKEDITQEFPGKGKALFQVNQWLTWLETAEEEESEEEAD
For B1, the binding result was “binds”.
